In PubChem BioAssay AID929 (National Center for Advancing Translational Sciences (NCATS), 2007):
Inconclusive results, whose numbers are uncertain, are shown with a selection of clear calls. A potency beside an inconclusive call is a rough fit, not a confirmed value. A note “side channel” means that the fit belongs to a control or component signal, not to the main read-out. Activity calls are given as the source filed them. The call rests on the fitted dose curve; in most records, active means well fitted inhibition curve with a large enough effect in the main read-out, with a control signal flat; inconclusive means small, poorly fitted or top-dose-only effect, or a change in a side signal; inactive means no such curve, though single readings can be large or run the other way.

Protein sequences, listed by entry. Tags and fused reporters are not part of them. Residues count along the entry.
UniProt P29466, 317-404 limits assumed: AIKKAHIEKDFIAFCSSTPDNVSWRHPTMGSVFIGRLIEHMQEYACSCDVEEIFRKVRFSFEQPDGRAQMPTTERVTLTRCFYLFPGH
UniProt P29466, 120-297 limits assumed: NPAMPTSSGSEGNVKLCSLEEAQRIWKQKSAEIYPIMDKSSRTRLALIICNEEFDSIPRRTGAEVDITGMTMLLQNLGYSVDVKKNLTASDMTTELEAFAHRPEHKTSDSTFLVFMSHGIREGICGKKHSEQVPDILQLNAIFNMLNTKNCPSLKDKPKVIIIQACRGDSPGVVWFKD

Biological target: Caspase-1 (Homo sapiens) (UniProt P29466)
Test: Concentration-Response Counterscreen for Redox Active Inhibitors of Caspase-1: Cysteine
Conditions: recombinant caspase-1, fluorogenic substrate, cysteine buffer; series mostly up to 57.5 µM; activity change, negative = inhibition: at the top concentration
Text: NIH Molecular Libraries Screening Centers Network [MLSCN]
NIH Chemical Genomics Center [NCGC]
PI Name: Dr. James Wells,
Dr. Enrique Perez-Paya, Dr.Janice Williams, Dr. Dennis Wolan, a person
The caspases (Cysteine Aspartyl Protease) comprise a related family of 14 dimeric proteases that are critical mediators of apoptosis (programmed cell death) and inflammation. The caspases represent an important class of drug targets for stroke, ischemia, cancer and inflammatory diseases. […] One goal of this project was to identify compounds that act as allosteric inhibitors via stabilizing the procaspase form of the enzyme. Previous work in Well's laboratory has shown that such allosteric inhibitors can be identified and these act by binding at the dimer interface of enzyme (Hardy, Lam et al., 2004).
The biochemical assay was configured using purified caspase 1 at a high enzyme concentration to promote formation of the homodimers and thus facilitate the identification of allosteric inhibitors. The overall goal was to identify reversible inhibitors with better drug-like properties than the currently available set of aspartyl-containing peptidomimetics that covalently bind the active site. Caspase 1 was assayed using the profluorescent substrate Ac-WEHD-AFC. After initiation of the assay with substrate the plates were rapidly read using an automated robotic system (Kalypsys, Inc.) to maintain consistent timing. A kinetic mode of detection was used where the initial rate was collected (estimated final product formation was ~10%). Product formation was also measured after 1 hour. Compounds were screened as a concentration-titration series that ranged from 57 uM to 0.7 nM.
Compounds that generate reactive oxygen species can lead to high hit rates in HTS biochemical assays. This mechanism was cited by Smith et al. (2002) as the main artifact responsible for >85% of the hits in an HTS against caspase 8. We identified a series of putative inhibitors in an enzymatic screen of caspase 1 and we performed two assays to test if these compounds operated by such a redox-active mechanism. Based on the published work, compounds that appear active due to a redox-active mechanism will show shifts in inhibition potency when the redox potential of the buffer is changed. Compounds that show a change in IC50 upon switching the buffer system from DTT to cysteine or DTT and the enzyme catalase are suspected to be redox active compounds.
NCGC Assay Protocol Summary:
Caspase 1 was prepared in buffer (50 mM HEPES pH 7.5, 50 mM KCl, 200 mM NaCl, 10 mM Cys (Aldrich cat# 861677), 0.1% CHAPS) at a concentration of 66.6 nM and 3 uL was dispensed to all wells using black solid Kalypsys 1536-well plates. 20 nL of DMSO containing compounds was added using a pin-tool (Kalypsys Inc.) to columns 5-48. Then 20 nL of DMSO solution from a control plate was added to columns 1-4. Controls were: Column 1, 16 point titration with each concentration in duplicate (1:1 dilutions in DMSO; final starting concentration was 57 uM) of the caspase 1 inhibitor Ac-WEHD-CHO (Alexis Biochemicals); Column 2, a 16 point titration with each concentration in duplicate of the free AFC fluorophore prepared in DMSO (Alexis Biochemicals), final starting was 40 uM; Column 3 neutral (DMSO only) control; Column 4: DMSO alone, to serve as a negative control (no substrate was added). Then 1 uL of 20 uM the substrate Ac-WEHD-AFC (Alexis Biochemicals) prepared in the same buffer was dispensed to all wells except columns 2 and 4 and the plates were immediately transferred (< 1 min) to the Viewlux. The plates were then exposed using 405 nm excitation/520 nm emission filters for 4 sec and read at 20 sec intervals for 3 min. Final enzyme concentration was 50 nM and the final substrate concentration was 5 uM.
Concentration-response curves were fitted to the data calculated from slope of the linear regression of fluorescent intensity versus time (the rate). […]

SMILES	Potency	activity change, negative = inhibition
Cc1ccc(N2C(=O)[C@@H]3[C@H](C2=O)C2c4ccccc4C=CN2[C@@H]3C(=O)c2ccco2)cc1 (some centres undefined)	inconclusive: 15.8 µM [inhibitor, partial curve]	–
O=C1NCCCC2c3cc(O)c4ccccc4c3OC12N1CCCCC1 (centres undefined)	–	inactive: -19.4%
Cc1cc(C)cc(C(=O)N(C)[C@H](Cc2ccc(-c3ccccc3)cc2)C(=O)N[C@@H](Cc2c[nH]c3ccccc23)C(=O)O)c1	inconclusive: 25.1 µM [inhibitor, partial curve]	–
COc1cc2c(C=O)c3c4c(cc(OC)c(OC)c4c2cc1OC)CCN3C	inconclusive: 15.8 µM [inhibitor, partial curve]	–
CC(=O)Nc1cc(OC(C)=O)c2nonc2c1OC(C)=O	inconclusive: 25.1 µM [inhibitor, partial curve]	–
Cc1ccc(NC(=O)N2CCC(c3nc4c(nnn4Cc4cccc(Cl)c4)c(=O)[nH]3)CC2)cc1	–	inactive: 3.47%
Cc1ccc(CNc2ccc(O)cc2)cc1	–	inactive: 3.12%
O=C(O)c1cc(O)c2c(c1)C(=O)c1cccc(O)c1C2=O	inconclusive: 15.8 µM [inhibitor, partial curve]	–
N#CC1=C2SCN(Cc3ccccc3)CN2C(=O)CC1c1cccs1 (centres undefined)	–	inactive: -1.89%
COc1ccc2c(c1)C(=O)N(c1ccccc1OC)C(=O)C2	inconclusive: 25.1 µM [inhibitor, partial curve]	–
COc1cc2c(cc1OC)CN(C(=O)CSc1nc3[nH]ncc3c(=O)n1-c1ccccc1)CC2	–	inactive: 5.83%
COc1cc2c(cc1OC)-c1c(OC)c(OC)c(C=O)c3c1[C@H](C2)N(C)CC3	inconclusive: 31.6 µM [inhibitor, partial curve]	–
C[C@]12Cc3cn4c(nc3C=C1CC[C@H]1[C@@H]2CC[C@@]2(C)[C@H]1CC[C@@]2(O)C#N)nc1ccccc14	inconclusive: 12.6 µM [fluorescent, side channel, full curve]	–
CCc1ccc(CNc2ccc(O)cc2)cc1	–	inactive: 8.55%
COc1cc2c(Cc3c4c5c(cc(OC)c(OC)c5c5c(OC)c(OC)ccc35)CCN4C)c3c4c(cc(OC)c(OC)c4c2cc1OC)CCN3C	inconclusive: 25.1 µM [inhibitor, partial curve]	–
CC1=C(C(=O)Nc2cc(-c3cccc(F)c3)[nH]n2)C2(CCCCC2)OC1=O	–	inactive: 2.53%
CC(=O)[C@@H]1[C@@H]2C(=O)N(c3ccc(F)c(Cl)c3)C(=O)[C@@H]2C2c3ccccc3C=CN21 (some centres undefined)	inconclusive: 15.8 µM [inhibitor, partial curve]	–
O=C(COC(=O)c1cc(-c2ccco2)nc2ccccc12)NCc1ccc2c(c1)OCO2	inconclusive: 15.8 µM [inhibitor, full curve]	–
COc1ccc2c(c1)Cc1sc(NC(=O)c3cccs3)nc1-2	–	inactive: -53.8%

Exported field by field: part of the list above
Cc1ccc(CNc2ccc(O)cc2)cc1
  activity change, negative = inhibition: inactive: 3.12%
O=C(O)c1cc(O)c2c(c1)C(=O)c1cccc(O)c1C2=O
  Potency: inconclusive: 15.8 µM [inhibitor, partial curve]
